Data as given in PubChem BioAssay AID1259254 (NCATS, 2017).

Aim: 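Genome-wide screen for genes that prevent DNA re-replication in cancer cells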 (primary screen)
System: human HCT116 colorectal cancer cells
Knock-down reagent: single siRNA against human genes
Time to read-out: 3 days
Measurement: 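Nuclei stained with Hoechst and imaged; cell-cycle phase assigned by DNA content; G2 share scaled per plate, non-targeting siRNA 0%, GMNN siRNA 100%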
Scale: G2 robust z-score and G2 cells, % of GMNN control: higher = more G2 cells, more excess DNA replication
Rule for the call: 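An siRNA counts as active if its G2 robust z-score lies at least 5 MADs above the screen median; here such calls match roughly 38% of GMNN control or more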
The deposit covers about 59,000 reagents; this is a random part of them. Of all reagents, about 1,550 (2.6%) are marked active. 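G2 share is only a proxy for re-replication; each gene was hit by three separate siRNAs, and active genes were retested.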 Reagents against one gene are numbered here. Not all columns of the deposit are shown. Not stated in the record: the amount of reagent.

Depletion of PIN4P1 #1 gave: G2 robust z-score 1.79; G2 cells, % of GMNN control 15.6; inactive. PIN4P1 #2 gave G2 robust z-score 0.269; G2 cells, % of GMNN control 4.86; inactive. Against PIN4P1 #3, the values are G2 robust z-score 2.11; G2 cells, % of GMNN control 17.8; inactive. Depletion of LSM1 (LSM1 homolog, mRNA degradation associated) #1 resulted in: G2 robust z-score 0.57; G2 cells, % of GMNN control 6.98; inactive. Depletion of LSM1 (LSM1 homolog, mRNA degradation associated) #2 came out at: G2 robust z-score 0.195; G2 cells, % of GMNN control 4.34; inactive. With knock-down of LSM1 (LSM1 homolog, mRNA degradation associated) #3, the record shows G2 robust z-score -0.665; G2 cells, % of GMNN control -1.71; inactive.

HDAC10 (histone deacetylase 10) #1 showed G2 robust z-score -0.376; G2 cells, % of GMNN control 0.323; inactive. Depletion of HDAC10 (histone deacetylase 10) #2 came out at: G2 robust z-score 2.07; G2 cells, % of GMNN control 17.6; inactive. HDAC10 (histone deacetylase 10) #3 scored G2 robust z-score 2.2; G2 cells, % of GMNN control 18.5; inactive. BTG2 (BTG anti-proliferation factor 2) #1 gave G2 robust z-score -0.0331; G2 cells, % of GMNN control 2.73; inactive. BTG2 (BTG anti-proliferation factor 2) #2 scored G2 robust z-score -0.564; G2 cells, % of GMNN control -1; inactive. For BTG2 (BTG anti-proliferation factor 2) #3, the entry reads G2 robust z-score 0.118; G2 cells, % of GMNN control 3.8; inactive.

FCRL5 (Fc receptor like 5) #1 showed G2 robust z-score 1; G2 cells, % of GMNN control 10; inactive. FCRL5 (Fc receptor like 5) #2 gave G2 robust z-score -0.161; G2 cells, % of GMNN control 1.84; inactive. Depletion of FCRL5 (Fc receptor like 5) #3 gave: G2 robust z-score 4.93; G2 cells, % of GMNN control 37.7; inactive. RETSAT (retinol saturase) #1 gave G2 robust z-score 1.83; G2 cells, % of GMNN control 15.8; inactive. With knock-down of RETSAT (retinol saturase) #2, the screen gave G2 robust z-score -0.56; G2 cells, % of GMNN control -0.975; inactive. RETSAT (retinol saturase) #3 scored G2 robust z-score 2.94; G2 cells, % of GMNN control 23.6; inactive.

Depletion of GLP2R (glucagon like peptide 2 receptor) #1 gave: G2 robust z-score 0.0251; G2 cells, % of GMNN control 3.14; inactive. For GLP2R (glucagon like peptide 2 receptor) #2, the entry reads G2 robust z-score 0.0702; G2 cells, % of GMNN control 3.46; inactive. GLP2R (glucagon like peptide 2 receptor) #3 showed G2 robust z-score -0.597; G2 cells, % of GMNN control -1.23; inactive. Knock-down of NEUROG2 (neurogenin 2) #1 resulted in: G2 robust z-score 0.39; G2 cells, % of GMNN control 5.71; inactive. Against NEUROG2 (neurogenin 2) #2, the values are G2 robust z-score 1.65; G2 cells, % of GMNN control 14.6; inactive. Depletion of NEUROG2 (neurogenin 2) #3 resulted in: G2 robust z-score -0.601; G2 cells, % of GMNN control -1.26; inactive.

With knock-down of CNTN3 (contactin 3) #1 the results were G2 robust z-score 0.706; G2 cells, % of GMNN control 7.93; inactive. Knock-down of CNTN3 (contactin 3) #2 resulted in: G2 robust z-score -1.01; G2 cells, % of GMNN control -4.12; inactive. Against CNTN3 (contactin 3) #3, the entry reads G2 robust z-score 0.0827; G2 cells, % of GMNN control 3.55; inactive. Against SIRT1 (sirtuin 1) #1, the entry reads G2 robust z-score -1.39; G2 cells, % of GMNN control -6.8; inactive. Against SIRT1 (sirtuin 1) #2, the entry reads G2 robust z-score 0.839; G2 cells, % of GMNN control 8.87; inactive. For SIRT1 (sirtuin 1) #3, the entry reads G2 robust z-score 2.63; G2 cells, % of GMNN control 21.5; inactive.

4 consecutive reagents from above, for reference:
HDAC10 (histone deacetylase 10) #3: G2 robust z-score = 2.2; G2 cells, % of GMNN control = 18.5; call = inactive
BTG2 (BTG anti-proliferation factor 2) #1: G2 robust z-score = -0.0331; G2 cells, % of GMNN control = 2.73; call = inactive
BTG2 (BTG anti-proliferation factor 2) #2: G2 robust z-score = -0.564; G2 cells, % of GMNN control = -1; call = inactive
BTG2 (BTG anti-proliferation factor 2) #3: G2 robust z-score = 0.118; G2 cells, % of GMNN control = 3.8; call = inactive
